Results on 2 molecules are retold here after publication PMC10617773.

The chains behind the UniProt entries cited, without tags or fusion partners.
UniProt Q96P20: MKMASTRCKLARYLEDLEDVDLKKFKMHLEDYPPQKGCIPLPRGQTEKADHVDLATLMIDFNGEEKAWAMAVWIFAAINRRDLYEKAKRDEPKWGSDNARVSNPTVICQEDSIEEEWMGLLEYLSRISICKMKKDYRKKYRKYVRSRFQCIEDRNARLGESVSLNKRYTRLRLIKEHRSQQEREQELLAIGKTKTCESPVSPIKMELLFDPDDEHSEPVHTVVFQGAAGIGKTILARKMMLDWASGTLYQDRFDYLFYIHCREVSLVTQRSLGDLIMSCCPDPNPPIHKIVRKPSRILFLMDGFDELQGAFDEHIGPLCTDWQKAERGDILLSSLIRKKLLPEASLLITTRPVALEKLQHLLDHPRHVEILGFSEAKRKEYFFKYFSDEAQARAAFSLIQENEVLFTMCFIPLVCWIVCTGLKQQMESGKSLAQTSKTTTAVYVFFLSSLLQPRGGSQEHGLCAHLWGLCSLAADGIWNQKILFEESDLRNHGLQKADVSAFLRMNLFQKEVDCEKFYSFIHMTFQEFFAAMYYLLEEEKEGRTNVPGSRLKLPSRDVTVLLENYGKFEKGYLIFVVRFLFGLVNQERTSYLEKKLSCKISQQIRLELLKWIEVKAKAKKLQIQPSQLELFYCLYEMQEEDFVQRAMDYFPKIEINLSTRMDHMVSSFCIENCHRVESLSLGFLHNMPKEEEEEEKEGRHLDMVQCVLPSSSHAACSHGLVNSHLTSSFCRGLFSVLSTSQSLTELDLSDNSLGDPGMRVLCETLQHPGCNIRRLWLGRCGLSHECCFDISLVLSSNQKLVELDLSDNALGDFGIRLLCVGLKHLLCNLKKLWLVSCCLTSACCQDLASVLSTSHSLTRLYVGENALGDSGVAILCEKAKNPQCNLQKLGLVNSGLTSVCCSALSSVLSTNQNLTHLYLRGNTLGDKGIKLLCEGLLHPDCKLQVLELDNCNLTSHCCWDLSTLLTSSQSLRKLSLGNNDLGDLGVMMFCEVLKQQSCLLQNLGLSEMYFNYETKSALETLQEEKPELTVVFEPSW
UniProt P53350: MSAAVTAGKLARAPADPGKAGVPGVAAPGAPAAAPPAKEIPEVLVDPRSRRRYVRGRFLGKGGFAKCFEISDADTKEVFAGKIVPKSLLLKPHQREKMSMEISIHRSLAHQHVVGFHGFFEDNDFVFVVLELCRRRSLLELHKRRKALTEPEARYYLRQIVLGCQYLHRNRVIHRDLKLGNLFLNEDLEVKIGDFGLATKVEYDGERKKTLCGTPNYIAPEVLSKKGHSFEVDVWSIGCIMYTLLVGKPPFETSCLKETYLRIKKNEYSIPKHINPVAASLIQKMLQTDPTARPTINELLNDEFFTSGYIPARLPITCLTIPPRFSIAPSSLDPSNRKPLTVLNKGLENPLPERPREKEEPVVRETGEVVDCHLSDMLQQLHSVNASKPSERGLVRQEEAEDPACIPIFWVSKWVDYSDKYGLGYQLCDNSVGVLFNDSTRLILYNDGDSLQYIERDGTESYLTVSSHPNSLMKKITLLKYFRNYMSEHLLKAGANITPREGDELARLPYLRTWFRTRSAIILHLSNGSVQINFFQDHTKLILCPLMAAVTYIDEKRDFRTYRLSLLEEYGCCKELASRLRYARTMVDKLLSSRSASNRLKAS

Results are given in words; binding and its absence hold for the method and conditions named. For some assays here: In cells and extracts the contact can be indirect. Some results given as binding are weak or reduced against the parent protein; the word gives no strength.

Experiment [1] deals with recombinant full-length NLRP3 tagged with GST (UniProt Q96P20). Nature of the experiment: BLI; Octet RED96, 25°C, 1,000 rpm; GST-NLRP3 (7.2 nM) immobilized on anti-GST biosensors; His-PLK1 as analyte at 500–15.125 nM, 180 s association and 180 s dissociation; 100 mM HEPES, 100 mM NaCl, pH 7.4, 0.01% BSA, 0.01% Tween-20; both purified.
In experiment [2] the target is T1, NLR family pyrin domain-containing 3 (NLRP3), endogenous murine (mouse (endogenous in BMDMs and iBMDMs)), Q8R4B8.
T1 chain: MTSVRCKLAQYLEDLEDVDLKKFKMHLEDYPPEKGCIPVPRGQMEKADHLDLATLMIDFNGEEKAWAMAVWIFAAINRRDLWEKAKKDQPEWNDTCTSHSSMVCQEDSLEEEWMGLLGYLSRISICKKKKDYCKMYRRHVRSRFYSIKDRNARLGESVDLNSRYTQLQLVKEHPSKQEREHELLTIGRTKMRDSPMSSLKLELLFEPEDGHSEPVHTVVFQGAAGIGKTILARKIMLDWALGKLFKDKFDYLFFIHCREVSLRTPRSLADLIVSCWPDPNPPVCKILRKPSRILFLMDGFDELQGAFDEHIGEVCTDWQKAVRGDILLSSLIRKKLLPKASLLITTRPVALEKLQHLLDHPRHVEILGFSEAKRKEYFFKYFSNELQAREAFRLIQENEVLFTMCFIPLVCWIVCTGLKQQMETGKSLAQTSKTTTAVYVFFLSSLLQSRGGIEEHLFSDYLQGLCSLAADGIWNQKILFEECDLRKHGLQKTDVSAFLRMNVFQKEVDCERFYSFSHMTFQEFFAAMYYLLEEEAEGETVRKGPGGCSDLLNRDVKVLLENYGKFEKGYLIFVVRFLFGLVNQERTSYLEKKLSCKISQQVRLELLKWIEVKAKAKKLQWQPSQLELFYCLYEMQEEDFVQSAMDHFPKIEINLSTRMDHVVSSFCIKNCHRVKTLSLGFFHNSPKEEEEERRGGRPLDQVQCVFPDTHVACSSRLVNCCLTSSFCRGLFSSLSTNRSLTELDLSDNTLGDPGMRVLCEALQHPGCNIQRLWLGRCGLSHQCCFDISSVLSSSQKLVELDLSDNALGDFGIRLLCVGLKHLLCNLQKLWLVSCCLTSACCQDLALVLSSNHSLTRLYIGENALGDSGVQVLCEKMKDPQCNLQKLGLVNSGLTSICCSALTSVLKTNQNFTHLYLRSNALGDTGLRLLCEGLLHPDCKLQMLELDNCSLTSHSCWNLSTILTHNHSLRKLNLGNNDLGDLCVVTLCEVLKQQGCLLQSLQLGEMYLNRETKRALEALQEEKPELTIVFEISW
Kind of experiment: proximity ligation; in situ PLA (Duolink) on fixed BMDMs with antibodies against PLK1 and NLRP3; cells primed (100 ng/mL LPS, 5 hours) and activated (5 mM ATP, 30 minutes), with or without 3 μM cyclapolin 9 at the activation stage. The conditions noted are these: remark: other sources report otherwise.

For the molecule “recombinant full-length PLK1 (tagged with His) (from UniProt P53350 1-603)”, the binding result in experiment [1] was “binds”.

B1: Polo-like kinase 1 (PLK1), endogenous murine, Q07832 1-603 (protein)
chain: MNAAAKAGKLARAPADLGKGGVPGDAVPGAPVAAPLAKEIPEVLVDPRSRRQYVRGRFLGKGGFAKCFEISDADTKEVFAGKIVPKSLLLKPHQKEKMSMEISIHRSLAHQHVVGFHDFFEDSDFVFVVLELCRRRSLLELHKRRKALTEPEARYYLRQIVLGCQYLHRNQVIHRDLKLGNLFLNEDLEVKIGDFGLATKVEYEGERKKTLCGTPNYIAPEVLSKKGHSFEVDVWSIGCIMYTLLVGKPPFETSCLKETYLRIKKNEYSIPKHINPVAASLIQKMLQTDPTARPTIHELLNDEFFTSGYIPARLPITCLTIPPRFSIAPSSLDPSSRKPLKVLNKGVENPLPDRPREKEEPVVRETNEAIECHLSDLLQQLTSVNASKPSERGLVRQEEAEDPACIPIFWVSKWVDYSDKYGLGYQLCDNSVGVLFNDSTRLILYNDGDSLQYIERDGTESYLTVSSHPNSLMKKITLLNYFRNYMSEHLLKAGANITPREGDELARLPYLRTWFRTRSAIILHLSNGTVQINFFQDHTKLILCPLMAAVTYINEKRDFQTYRLSLLEEYGCCKELASRLRYARTMVDKLLSSRSASNRLKAS
On to B1, for which the binding result in experiment [2] is “binds”.
